Measurements from paper PMC8648671.
Results are given in words; binding and its absence hold for the method and conditions named. Binding seen in cells or lysates may run through a third protein. Binding can be weak; no strength is given. Where a sequence is shown, tags or fusion partners need not be part of it.

How the values were obtained:
[1] = biological target: Beta-Pix (endogenous, SW480) (human (endogenous in SW480)); assay: co-IP; SW480 cells expressing Flag-Dyn2 treated with AuNP-IgG or AuNP-SH3; immunoprecipitation of βPix (anti-βPix-GBD by the legend, anti-βPix-SH3 by the text)
βPix-Myc = assay: co-IP; HEK293T transfected with βPix-Myc or βPix-SH3 mutant-Myc and Flag-Dyn2; anti-Myc antibodies; IP buffer 50 mM HEPES pH 7.4, 150 mM NaCl, 0.5 % NP 40
Flag-βPix = assay: co-IP; HEK293T transfected with Flag-βPix (or mutants) and Dyn2-GFP (or R834A); anti-Flag antibodies; also with 5 µM PP2 for 30 min, or with constitutively active or dominant-negative Src

B1: Flag-Dyn2 (SW480) (protein, UniProt P39052 1-870)
chain: MGNRGMEELIPLVNKLQDAFSSIGQSCHLDLPQIAVVGGQSAGKSSVLENFVGRDFLPRGSGIVTRRPLILQLIFSKTEYAEFLHCKSKKFTDFDEVRQEIEAETDRVTGTNKGISPVPINLRVYSPHVLNLTLIDLPGITKVPVGDQPPDIEYQIKDMILQFISRESSLILAVTPANMDLANSDALKLAKEVDPQGLRTIGVITKLDLMDEGTDARDVLENKLLPLRRGYIGVVNRSQKDIEGRKDIRAALAAERKFFLSHPAYRHMADRMGTPHLQKTLNQQLTNHIRESLPTLRSKLQSQLLSLEKEVEEYKNFRPDDPTRKTKALLQMVQQFGVDFEKRIEGSGDQVDTLELSGGARINRIFHERFPFELVKMEFDEKDLRREISYAIKNIHGVRTGLFTPDLAFEAIVKKQVVKLKEPCLKCVDLVIQELISTVRQCTSKLSSYPRLREETERIVTTYIREREGRTKDQILLLIDIEQSYINTNHEDFIGFANAQQRSTQLNKKRAIPNQGEILVIRRGWLTINNISLMKGGSKEYWFVLTAESLSWYKDEEEKEKKYMLPLDNLKIRDVEKGFMSNKHVFAIFNTEQRNVYKDLRQIELACDSQEDVDSWKASFLRAGVYPEKDQAENEDGAQENTFSMDPQLERQVETIRNLVDSYVAIINKSIRDLMPKTIMHLMINNTKAFIHHELLAYLYSSADQSSLMEESAEQAQRRDDMLRMYHALKEALNIIGDISTSTVSTPVPPPVDDTWLQNTSSHSPTPQRRPVSSVHPPGRPPAVRGPTPGPPLIPMPVGATSSFSAPPIPSRPGPQNVFANNDPFSAPPQIPSRPARIPPGIPPGVPSRRAPAAPSRPTIIRPAEPSLLD
binding [1]: binds

B2: Flag-Dyn2 (HEK293T) (protein, UniProt P39052 1-870)
chain: MGNRGMEELIPLVNKLQDAFSSIGQSCHLDLPQIAVVGGQSAGKSSVLENFVGRDFLPRGSGIVTRRPLILQLIFSKTEYAEFLHCKSKKFTDFDEVRQEIEAETDRVTGTNKGISPVPINLRVYSPHVLNLTLIDLPGITKVPVGDQPPDIEYQIKDMILQFISRESSLILAVTPANMDLANSDALKLAKEVDPQGLRTIGVITKLDLMDEGTDARDVLENKLLPLRRGYIGVVNRSQKDIEGRKDIRAALAAERKFFLSHPAYRHMADRMGTPHLQKTLNQQLTNHIRESLPTLRSKLQSQLLSLEKEVEEYKNFRPDDPTRKTKALLQMVQQFGVDFEKRIEGSGDQVDTLELSGGARINRIFHERFPFELVKMEFDEKDLRREISYAIKNIHGVRTGLFTPDLAFEAIVKKQVVKLKEPCLKCVDLVIQELISTVRQCTSKLSSYPRLREETERIVTTYIREREGRTKDQILLLIDIEQSYINTNHEDFIGFANAQQRSTQLNKKRAIPNQGEILVIRRGWLTINNISLMKGGSKEYWFVLTAESLSWYKDEEEKEKKYMLPLDNLKIRDVEKGFMSNKHVFAIFNTEQRNVYKDLRQIELACDSQEDVDSWKASFLRAGVYPEKDQAENEDGAQENTFSMDPQLERQVETIRNLVDSYVAIINKSIRDLMPKTIMHLMINNTKAFIHHELLAYLYSSADQSSLMEESAEQAQRRDDMLRMYHALKEALNIIGDISTSTVSTPVPPPVDDTWLQNTSSHSPTPQRRPVSSVHPPGRPPAVRGPTPGPPLIPMPVGATSSFSAPPIPSRPGPQNVFANNDPFSAPPQIPSRPARIPPGIPPGVPSRRAPAAPSRPTIIRPAEPSLLD
binding (βPix-Myc): binds

B3: Dyn2-GFP (protein, UniProt P39052 1-870)
chain: MGNRGMEELIPLVNKLQDAFSSIGQSCHLDLPQIAVVGGQSAGKSSVLENFVGRDFLPRGSGIVTRRPLILQLIFSKTEYAEFLHCKSKKFTDFDEVRQEIEAETDRVTGTNKGISPVPINLRVYSPHVLNLTLIDLPGITKVPVGDQPPDIEYQIKDMILQFISRESSLILAVTPANMDLANSDALKLAKEVDPQGLRTIGVITKLDLMDEGTDARDVLENKLLPLRRGYIGVVNRSQKDIEGRKDIRAALAAERKFFLSHPAYRHMADRMGTPHLQKTLNQQLTNHIRESLPTLRSKLQSQLLSLEKEVEEYKNFRPDDPTRKTKALLQMVQQFGVDFEKRIEGSGDQVDTLELSGGARINRIFHERFPFELVKMEFDEKDLRREISYAIKNIHGVRTGLFTPDLAFEAIVKKQVVKLKEPCLKCVDLVIQELISTVRQCTSKLSSYPRLREETERIVTTYIREREGRTKDQILLLIDIEQSYINTNHEDFIGFANAQQRSTQLNKKRAIPNQGEILVIRRGWLTINNISLMKGGSKEYWFVLTAESLSWYKDEEEKEKKYMLPLDNLKIRDVEKGFMSNKHVFAIFNTEQRNVYKDLRQIELACDSQEDVDSWKASFLRAGVYPEKDQAENEDGAQENTFSMDPQLERQVETIRNLVDSYVAIINKSIRDLMPKTIMHLMINNTKAFIHHELLAYLYSSADQSSLMEESAEQAQRRDDMLRMYHALKEALNIIGDISTSTVSTPVPPPVDDTWLQNTSSHSPTPQRRPVSSVHPPGRPPAVRGPTPGPPLIPMPVGATSSFSAPPIPSRPGPQNVFANNDPFSAPPQIPSRPARIPPGIPPGVPSRRAPAAPSRPTIIRPAEPSLLD
binding (Flag-βPix): binds
